Measured values: the supplement of paper PMC10849652
The other results are listed elsewhere or left out.

By UniProt entry, the sequences of proteins in these tests, tags left out. Where a name states a change or a piece, a line headed by the entry shows the natural chain unless it says otherwise.
UniProt Q9Y5L0: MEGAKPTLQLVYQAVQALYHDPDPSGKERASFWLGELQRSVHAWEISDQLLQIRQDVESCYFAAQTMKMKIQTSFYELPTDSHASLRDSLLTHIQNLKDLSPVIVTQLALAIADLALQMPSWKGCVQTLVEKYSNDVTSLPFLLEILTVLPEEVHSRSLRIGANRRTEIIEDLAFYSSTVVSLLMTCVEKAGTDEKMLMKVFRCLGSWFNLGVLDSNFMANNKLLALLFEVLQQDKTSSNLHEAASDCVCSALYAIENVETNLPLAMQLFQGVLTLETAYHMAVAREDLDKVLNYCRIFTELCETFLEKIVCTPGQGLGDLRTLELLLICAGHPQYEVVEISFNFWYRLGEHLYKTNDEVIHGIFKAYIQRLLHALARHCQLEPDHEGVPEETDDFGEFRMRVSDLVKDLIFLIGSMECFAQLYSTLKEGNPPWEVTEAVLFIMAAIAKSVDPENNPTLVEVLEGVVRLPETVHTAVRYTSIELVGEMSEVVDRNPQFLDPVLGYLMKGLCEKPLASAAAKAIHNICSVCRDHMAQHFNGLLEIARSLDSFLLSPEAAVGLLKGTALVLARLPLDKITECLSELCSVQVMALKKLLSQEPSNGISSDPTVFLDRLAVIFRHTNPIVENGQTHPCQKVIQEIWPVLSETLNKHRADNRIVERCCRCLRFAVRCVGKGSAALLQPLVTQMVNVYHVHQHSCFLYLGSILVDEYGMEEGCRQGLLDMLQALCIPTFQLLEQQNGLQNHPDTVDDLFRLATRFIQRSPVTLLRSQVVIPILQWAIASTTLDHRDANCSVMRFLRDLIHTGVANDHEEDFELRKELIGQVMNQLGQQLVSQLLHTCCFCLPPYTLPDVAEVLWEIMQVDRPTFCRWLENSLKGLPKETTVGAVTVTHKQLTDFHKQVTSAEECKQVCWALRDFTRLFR
UniProt P51580: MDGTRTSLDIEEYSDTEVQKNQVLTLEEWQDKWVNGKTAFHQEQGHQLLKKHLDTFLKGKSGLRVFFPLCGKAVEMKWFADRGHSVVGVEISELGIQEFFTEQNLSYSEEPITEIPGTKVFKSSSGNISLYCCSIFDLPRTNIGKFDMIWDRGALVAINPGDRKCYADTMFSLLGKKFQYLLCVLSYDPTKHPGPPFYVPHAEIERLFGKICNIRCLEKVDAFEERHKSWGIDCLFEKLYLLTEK
UniProt O60784, whole entry, looked up: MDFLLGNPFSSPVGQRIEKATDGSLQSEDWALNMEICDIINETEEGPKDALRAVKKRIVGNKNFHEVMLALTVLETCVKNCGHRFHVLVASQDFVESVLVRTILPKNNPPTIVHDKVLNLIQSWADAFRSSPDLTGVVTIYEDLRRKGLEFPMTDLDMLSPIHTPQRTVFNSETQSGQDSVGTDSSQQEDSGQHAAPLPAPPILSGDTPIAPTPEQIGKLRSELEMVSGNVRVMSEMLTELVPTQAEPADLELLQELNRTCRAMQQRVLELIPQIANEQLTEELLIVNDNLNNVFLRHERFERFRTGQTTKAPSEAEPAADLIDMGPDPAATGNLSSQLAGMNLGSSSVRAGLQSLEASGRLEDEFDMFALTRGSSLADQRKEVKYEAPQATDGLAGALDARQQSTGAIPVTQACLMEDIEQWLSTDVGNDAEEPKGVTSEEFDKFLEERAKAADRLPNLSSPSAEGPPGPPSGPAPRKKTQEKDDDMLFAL
UniProt Q5SWH9: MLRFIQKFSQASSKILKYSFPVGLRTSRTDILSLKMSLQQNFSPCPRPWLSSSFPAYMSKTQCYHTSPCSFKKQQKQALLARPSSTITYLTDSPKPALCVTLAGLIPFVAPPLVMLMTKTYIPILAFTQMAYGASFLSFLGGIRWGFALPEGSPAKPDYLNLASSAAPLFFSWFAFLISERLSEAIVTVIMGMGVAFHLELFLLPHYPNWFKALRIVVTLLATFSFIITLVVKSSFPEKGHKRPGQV
UniProt Q9BVT8: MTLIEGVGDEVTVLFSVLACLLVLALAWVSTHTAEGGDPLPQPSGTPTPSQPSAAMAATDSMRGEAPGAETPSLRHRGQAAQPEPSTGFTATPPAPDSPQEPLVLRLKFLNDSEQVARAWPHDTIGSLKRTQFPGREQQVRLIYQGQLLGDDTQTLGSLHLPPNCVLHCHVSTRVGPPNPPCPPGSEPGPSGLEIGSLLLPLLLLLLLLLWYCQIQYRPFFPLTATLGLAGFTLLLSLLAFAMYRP
UniProt P12270, whole entry, looked up: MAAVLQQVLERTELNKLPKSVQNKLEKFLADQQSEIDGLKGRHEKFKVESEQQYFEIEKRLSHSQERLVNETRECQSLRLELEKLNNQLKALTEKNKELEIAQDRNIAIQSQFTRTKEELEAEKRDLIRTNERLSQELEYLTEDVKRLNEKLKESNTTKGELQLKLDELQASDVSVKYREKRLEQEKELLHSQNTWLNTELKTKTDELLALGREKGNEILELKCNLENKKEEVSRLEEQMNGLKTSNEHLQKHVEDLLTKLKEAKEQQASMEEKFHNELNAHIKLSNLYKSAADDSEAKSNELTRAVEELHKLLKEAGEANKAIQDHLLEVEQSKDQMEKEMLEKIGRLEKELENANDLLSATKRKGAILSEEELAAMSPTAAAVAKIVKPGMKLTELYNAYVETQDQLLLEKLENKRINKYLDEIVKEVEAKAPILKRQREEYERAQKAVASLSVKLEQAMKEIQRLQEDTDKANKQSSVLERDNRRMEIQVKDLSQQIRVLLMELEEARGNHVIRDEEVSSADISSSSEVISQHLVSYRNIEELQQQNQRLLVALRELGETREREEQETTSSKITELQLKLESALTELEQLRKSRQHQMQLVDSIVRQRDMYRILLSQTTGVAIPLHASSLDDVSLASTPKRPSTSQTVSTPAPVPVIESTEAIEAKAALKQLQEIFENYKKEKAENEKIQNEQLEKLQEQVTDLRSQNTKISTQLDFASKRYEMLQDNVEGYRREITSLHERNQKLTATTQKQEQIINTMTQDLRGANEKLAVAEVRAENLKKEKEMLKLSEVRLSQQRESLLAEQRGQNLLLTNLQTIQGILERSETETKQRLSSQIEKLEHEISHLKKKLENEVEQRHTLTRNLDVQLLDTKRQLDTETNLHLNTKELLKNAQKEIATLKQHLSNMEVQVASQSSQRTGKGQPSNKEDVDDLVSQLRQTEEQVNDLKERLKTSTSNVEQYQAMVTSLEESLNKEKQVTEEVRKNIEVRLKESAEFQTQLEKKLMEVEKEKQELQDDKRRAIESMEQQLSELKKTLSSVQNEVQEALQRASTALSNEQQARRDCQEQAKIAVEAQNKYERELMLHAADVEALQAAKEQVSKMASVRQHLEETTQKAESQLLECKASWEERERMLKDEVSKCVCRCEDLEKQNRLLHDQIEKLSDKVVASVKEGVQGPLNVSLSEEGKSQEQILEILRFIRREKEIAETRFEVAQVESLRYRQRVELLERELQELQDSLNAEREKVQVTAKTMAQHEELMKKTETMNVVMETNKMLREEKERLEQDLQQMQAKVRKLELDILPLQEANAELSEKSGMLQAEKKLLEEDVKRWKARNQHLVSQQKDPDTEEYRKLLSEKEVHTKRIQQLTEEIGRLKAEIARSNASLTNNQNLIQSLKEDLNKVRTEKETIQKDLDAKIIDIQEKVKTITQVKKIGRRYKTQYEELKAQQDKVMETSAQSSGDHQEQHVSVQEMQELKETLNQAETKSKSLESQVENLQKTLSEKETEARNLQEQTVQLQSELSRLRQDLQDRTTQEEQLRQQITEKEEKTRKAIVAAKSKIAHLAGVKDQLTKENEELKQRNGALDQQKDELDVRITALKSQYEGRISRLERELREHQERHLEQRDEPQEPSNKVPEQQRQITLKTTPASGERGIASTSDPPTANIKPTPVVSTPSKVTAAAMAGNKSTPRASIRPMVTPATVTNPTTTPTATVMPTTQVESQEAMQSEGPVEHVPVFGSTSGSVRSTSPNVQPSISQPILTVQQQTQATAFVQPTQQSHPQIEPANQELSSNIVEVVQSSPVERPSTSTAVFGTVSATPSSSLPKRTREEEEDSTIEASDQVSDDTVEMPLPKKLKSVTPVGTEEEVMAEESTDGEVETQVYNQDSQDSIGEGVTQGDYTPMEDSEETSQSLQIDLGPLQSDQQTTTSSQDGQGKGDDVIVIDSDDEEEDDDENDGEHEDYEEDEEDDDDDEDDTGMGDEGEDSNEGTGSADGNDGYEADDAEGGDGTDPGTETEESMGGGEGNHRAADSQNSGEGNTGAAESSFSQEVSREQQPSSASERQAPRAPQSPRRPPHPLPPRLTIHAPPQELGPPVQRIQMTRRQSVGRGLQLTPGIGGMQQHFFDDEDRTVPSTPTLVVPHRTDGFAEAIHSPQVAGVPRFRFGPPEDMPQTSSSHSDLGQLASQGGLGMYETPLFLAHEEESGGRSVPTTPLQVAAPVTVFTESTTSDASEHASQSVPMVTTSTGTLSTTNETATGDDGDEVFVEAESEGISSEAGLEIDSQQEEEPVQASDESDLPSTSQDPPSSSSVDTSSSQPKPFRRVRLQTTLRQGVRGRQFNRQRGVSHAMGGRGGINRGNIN
UniProt O00220, whole entry, looked up: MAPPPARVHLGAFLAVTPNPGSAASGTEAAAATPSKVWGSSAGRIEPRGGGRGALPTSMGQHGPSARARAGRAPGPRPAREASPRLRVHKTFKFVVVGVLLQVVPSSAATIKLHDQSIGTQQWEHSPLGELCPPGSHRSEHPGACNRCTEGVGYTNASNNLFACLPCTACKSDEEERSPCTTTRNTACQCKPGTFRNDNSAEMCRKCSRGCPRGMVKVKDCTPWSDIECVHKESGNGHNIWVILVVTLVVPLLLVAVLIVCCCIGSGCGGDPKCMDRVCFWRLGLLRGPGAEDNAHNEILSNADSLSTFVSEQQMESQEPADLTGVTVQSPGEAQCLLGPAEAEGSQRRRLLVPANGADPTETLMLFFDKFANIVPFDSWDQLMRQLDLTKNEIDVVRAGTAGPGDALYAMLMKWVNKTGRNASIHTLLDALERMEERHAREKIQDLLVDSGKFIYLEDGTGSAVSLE
UniProt O75674: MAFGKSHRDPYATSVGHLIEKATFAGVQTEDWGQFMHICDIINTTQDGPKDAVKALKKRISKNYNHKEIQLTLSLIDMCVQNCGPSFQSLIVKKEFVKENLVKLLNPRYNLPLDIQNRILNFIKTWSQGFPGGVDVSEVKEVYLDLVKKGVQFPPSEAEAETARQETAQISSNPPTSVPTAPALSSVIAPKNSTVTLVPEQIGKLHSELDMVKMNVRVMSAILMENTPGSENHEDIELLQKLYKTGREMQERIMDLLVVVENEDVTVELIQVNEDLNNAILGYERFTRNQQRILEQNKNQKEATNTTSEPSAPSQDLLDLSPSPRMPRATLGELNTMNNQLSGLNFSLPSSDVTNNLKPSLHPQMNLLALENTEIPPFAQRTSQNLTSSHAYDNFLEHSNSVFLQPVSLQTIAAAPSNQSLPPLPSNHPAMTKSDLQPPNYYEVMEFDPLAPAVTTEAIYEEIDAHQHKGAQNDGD
UniProt Q9H496: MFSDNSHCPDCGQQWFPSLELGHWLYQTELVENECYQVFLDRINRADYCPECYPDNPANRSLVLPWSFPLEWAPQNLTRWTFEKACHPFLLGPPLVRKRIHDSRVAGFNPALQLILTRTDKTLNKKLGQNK
UniProt Q9H497: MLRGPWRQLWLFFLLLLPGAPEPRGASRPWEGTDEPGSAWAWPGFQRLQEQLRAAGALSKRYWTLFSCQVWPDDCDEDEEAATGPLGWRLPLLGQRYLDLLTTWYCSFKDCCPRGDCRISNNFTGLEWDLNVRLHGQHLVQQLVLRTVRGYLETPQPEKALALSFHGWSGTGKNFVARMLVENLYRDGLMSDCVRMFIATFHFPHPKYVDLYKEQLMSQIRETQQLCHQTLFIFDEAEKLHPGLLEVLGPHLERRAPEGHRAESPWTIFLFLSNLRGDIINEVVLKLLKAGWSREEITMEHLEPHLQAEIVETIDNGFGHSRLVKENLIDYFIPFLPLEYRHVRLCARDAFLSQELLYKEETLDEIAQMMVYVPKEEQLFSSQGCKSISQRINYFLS
UniProt P13693: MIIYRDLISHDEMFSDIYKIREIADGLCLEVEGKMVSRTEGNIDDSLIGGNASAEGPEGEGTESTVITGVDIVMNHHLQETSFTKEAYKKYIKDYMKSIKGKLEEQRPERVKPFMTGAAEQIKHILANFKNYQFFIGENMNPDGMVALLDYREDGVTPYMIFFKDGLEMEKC
UniProt P28289: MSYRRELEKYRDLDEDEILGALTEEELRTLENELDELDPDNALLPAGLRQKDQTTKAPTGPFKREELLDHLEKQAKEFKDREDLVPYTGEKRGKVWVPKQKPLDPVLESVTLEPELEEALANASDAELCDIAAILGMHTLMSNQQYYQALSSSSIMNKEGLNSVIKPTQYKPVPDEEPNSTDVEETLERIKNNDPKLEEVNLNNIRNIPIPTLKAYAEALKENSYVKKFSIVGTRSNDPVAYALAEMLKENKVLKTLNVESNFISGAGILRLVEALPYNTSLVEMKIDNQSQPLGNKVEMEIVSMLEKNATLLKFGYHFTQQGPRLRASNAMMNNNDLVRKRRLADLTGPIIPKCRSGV

Legend:
Assay in all cases: log2 fold change, soluble protein after heating vs DMSO (PISA); higher = thermal stabilisation; K562 lysate, 10 uM; active = over 0.2 and 3.5 SD of the protein, either way, in both replicates (recomputed)
erlotinib = compound: C#Cc1cccc(Nc2ncnc3cc(OCCOC)c(OCCOC)cc23)c1 [erlotinib]
How it was run: (§1)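 Log-two fold change in thermal stability relative to solvent controls is reported from duplicates. For each sample, crude K562 extract from dounce-homogenised pellets in PBS pH 7.4 with 1 mM MgCl2, at 1 mg/mL protein, was treated with 10 μM compound for 30 min. Aliquots heated for 3 min across 48°C-58°C were pooled, brought to 0.5% NP-40 at 4°C and cleared at 21,000xg for 90 min. The supernatant was quantified by TMTpro 16plex LC-MS/MS with channel sums equalised.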

[1] = compound: C/C(=N\NC(=O)C1=CC(=CC=C1)S(=O)(=O)N2CCOCC2)/C3=C(C=CC(=C3)Cl)O
How it was run: as §1

[2] = compound: C1=CC(=CC=C1C2=NC3=C(N2)C=C(C=C3)C(=O)N)OC4=CC=C(C=C4)Cl
How it was run: as §1

[3] = compound: C1=CC2=C(C=CC(=C2)/C=C\3/C(=O)NC(=NCC4=CC=CS4)S3)N=C1
How it was run: as §1

[4] = compound: C1=CC2=NC=CN=C2C=C1/C=C/3\C(=O)NC(=O)S3
How it was run: as §1

[5] = compound: C1=CC=C(C=C1)C2=NC(=C(N2)C3=CC=NC=C3)C4=CC(=C(C=C4)Cl)O
How it was run: as §1

[6] = compound: C1=CC=C2C(=C1)C3=NNC4=CC=CC(=C43)C2=O
How it was run: as §1

[7] = compound: C1CCN(C1)C(=O)NC2=CC=CC(=C2)NC3=NC=C(C(=N3)NCCC4=CN=CN4)Br
How it was run: as §1

[8] = compound: C1CN(CCC1(CC2=CC=C(C=C2)Cl)N)C3=NC=NC4=C3C=CN4
How it was run: as §1

IRAK-1-4 Inhibitor I = compound: C1COCCN1CCN2C3=CC=CC=C3N=C2NC(=O)C4=CC(=CC=C4)[N+](=O)[O-] [IRAK-1-4 Inhibitor I]
How it was run: as §1

Measured: log2 fold change

TNPO3 (UniProt Q9Y5L0)
inactive: erlotinib 0.022 | [1] 0.001 | [2] -0.019 | [3] -0.018 | [4] 0.019 | [5] -0.008 | [6] 0 | [7] 0.018 | [8] 0.017 | IRAK-1-4 Inhibitor I 0.021

TPMT (UniProt P51580)
inactive: erlotinib -0.022 | [1] 0.041 | [2] 0 | [3] -0.043 | [4] -0.002 | [5] 0.006 | [6] -0.027 | [7] -0.031 | [8] 0.037 | IRAK-1-4 Inhibitor I -0.018

TMEM63B (UniProt Q5T3F8)
inactive: erlotinib 0.004 | [1] 0.049 | [2] 0.002 | [3] 0.047 | [4] 0.027 | [5] 0.013 | [6] -0.051 | [7] -0.011 | [8] 0.002 | IRAK-1-4 Inhibitor I -0.019

TNNI3K isoform 1 (UniProt Q59H18)
inactive: erlotinib 0.27 | [1] 0.028 | [2] 0.122 | [3] -0.014 | [4] 0.033 | [5] 0.023 | [6] -0.052 | [7] 0.089 | [8] 0.057 | IRAK-1-4 Inhibitor I -0.032

TOM1 isoform 2 (UniProt O60784)
inactive: erlotinib -0.029 | [1] -0.014 | [2] 0.028 | [3] 0.019 | [4] -0.019 | [5] 0.002 | [6] -0.031 | [7] -0.032 | [8] 0.011 | IRAK-1-4 Inhibitor I 0.003

TMEM69 (UniProt Q5SWH9)
inactive: erlotinib -0.023 | [1] -0.241 | [2] 0.047 | [3] 0.016 | [4] 0.046 | [5] -0.128 | [6] -0.002 | [7] -0.107 | [8] 0.002 | IRAK-1-4 Inhibitor I 0.086

TRABD (UniProt Q9H4I3)
inactive: erlotinib -0.04 | [1] -0.121 | [2] 0.021 | [3] -0.022 | [4] -0.016 | [5] -0.056 | [6] -0.083 | [7] -0.007 | [8] -0.037 | IRAK-1-4 Inhibitor I 0.044

TNFRSF1B (UniProt P20333)
inactive: erlotinib 0.028 | [1] 0.001 | [2] 0.037 | [3] -0.101 | [4] -0.04 | [5] -0.034 | [6] -0.058 | [7] 0.037 | [8] 0.12 | IRAK-1-4 Inhibitor I 0.001

TPP2 (UniProt P29144)
inactive: erlotinib -0.001 | [1] -0.098 | [2] 0.01 | [3] 0.001 | [4] 0.006 | [5] 0 | [6] -0.02 | [7] -0.003 | [8] -0.005 | IRAK-1-4 Inhibitor I -0.002

TMUB1 (UniProt Q9BVT8)
inactive: erlotinib 0.027 | [1] 0.056 | [2] 0.004 | [3] -0.132 | [4] -0.197 | [5] -0.056 | [6] 0.022 | [7] -0.012 | [8] -0.034 | IRAK-1-4 Inhibitor I -0.096

TMX3 (UniProt Q96JJ7)
inactive: erlotinib 0 | [1] -0.02 | [2] 0.003 | [3] -0.01 | [4] 0.014 | [5] 0.004 | [6] -0.036 | [7] 0.014 | [8] 0.048 | IRAK-1-4 Inhibitor I 0.003

TNKS (UniProt O95271)
inactive: erlotinib 0.064 | [1] -0.024 | [2] -0.036 | [3] -0.005 | [5] 0.052 | [6] -0.01 | [7] -0.061 | [8] -0.02 | IRAK-1-4 Inhibitor I -0.073

TNFRSF10B (UniProt O14763)
inactive: erlotinib -0.08 | [1] -0.06 | [2] -0.051 | [3] 0.028 | [4] -0.036 | [5] 0.079 | [6] -0.054 | [7] -0.012 | [8] -0.002 | IRAK-1-4 Inhibitor I -0.04

TPRKB (UniProt Q9Y3C4)
inactive: erlotinib -0.029 | [1] -0.008 | [2] 0.024 | [3] -0.091 | [4] -0.156 | [5] -0.015 | [6] 0.096 | [7] -0.018 | [8] 0.051 | IRAK-1-4 Inhibitor I 0.02

TPST2 (UniProt O60704)
inactive: erlotinib -0.064 | [1] -0.062 | [2] 0.042 | [3] 0.049 | [4] -0.002 | [5] -0.016 | [6] -0.06 | [7] 0.015 | [8] 0.032 | IRAK-1-4 Inhibitor I -0.038

TOR1AIP1 isoform 3 (UniProt Q5JTV8)
inactive: erlotinib -0.007 | [1] -0.092 | [2] -0.008 | [3] 0.006 | [4] -0.028 | [5] -0.016 | [6] -0.016 | [7] -0.002 | [8] 0.037 | IRAK-1-4 Inhibitor I 0.021

TPM3 isoform 3 (UniProt P06753)
inactive: erlotinib -0.074 | [1] -0.007 | [2] -0.076 | [3] -0.006 | [5] -0.033 | [6] 0.08 | [7] 0.084 | [8] -0.068 | IRAK-1-4 Inhibitor I -0.016

TPR (UniProt P12270)
inactive: erlotinib -0.027 | [1] 0.007 | [2] 0.025 | [3] -0.005 | [4] -0.01 | [5] 0.003 | [6] 0.014 | [7] 0.006 | [8] 0.003 | IRAK-1-4 Inhibitor I -0.011

TMEM38B (UniProt Q9NVV0)
inactive: erlotinib -0.025 | [1] -0.058 | [2] 0.002 | [3] 0.033 | [4] -0.012 | [5] -0.06 | [6] -0.215 | [7] 0.017 | [8] 0.01 | IRAK-1-4 Inhibitor I 0.056

TNIP2 (UniProt Q8NFZ5)
inactive: erlotinib 0.086 | [1] -0.354 | [2] -0.378 | [3] 0.212 | [4] 0.076 | [6] -0.304 | [7] -0.12 | [8] 0.156

TNFRSF10A (UniProt O00220)
inactive: erlotinib -0.049 | [1] -0.103 | [2] 0.016 | [3] 0.007 | [4] -0.004 | [5] 0.02 | [6] -0.004 | [7] 0.037 | [8] -0.016 | IRAK-1-4 Inhibitor I -0.019

TOM1L1 (UniProt O75674)
inactive: erlotinib -0.035 | [1] -0.064 | [2] 0.026 | [3] -0.006 | [4] 0.021 | [5] -0.003 | [6] 0.013 | [7] -0.037 | [8] -0.005 | IRAK-1-4 Inhibitor I 0.022

TOR1AIP2 (UniProt Q9H496)
inactive: erlotinib 0.084 | [1] 0.035 | [2] 0.069 | [3] -0.182 | [4] -0.015 | [5] -0.014 | [6] -0.426 | [7] -0.127 | [8] 0.109 | IRAK-1-4 Inhibitor I -0.036

TOR3A (UniProt Q9H497)
inactive: erlotinib 0 | [1] 0.002 | [2] 0.006 | [3] -0.008 | [4] -0.01 | [5] -0.012 | [6] -0.087 | [7] 0.039 | [8] 0.013 | IRAK-1-4 Inhibitor I 0.021

TMEM8A (UniProt Q9HCN3)
inactive: erlotinib -0.106 | [1] -0.076 | [2] 0.185 | [3] 0.088 | [4] -0.344 | [6] 0.079 | [7] 0.043 | [8] 0.001

TMEM62 (UniProt Q0P6H9)
inactive: erlotinib -0.013 | [1] 0.057 | [2] 0.025 | [3] 0.003 | [4] 0.136 | [5] -0.019 | [6] 0.009 | [7] 0.008 | [8] 0.078 | IRAK-1-4 Inhibitor I 0.084

TPRG1L (UniProt Q5T0D9)
inactive: erlotinib 0.023 | [1] 0.149 | [2] 0 | [3] -0.007 | [5] 0.211 | [6] -0.134 | [7] 0.019 | [8] -0.081 | IRAK-1-4 Inhibitor I -0.073

TMEM97 (UniProt Q5BJF2)
inactive: erlotinib 0.01 | [1] 0.043 | [2] 0.036 | [3] 0.007 | [4] 0.019 | [5] 0 | [6] 0.002 | [7] -0.033 | [8] 0.018 | IRAK-1-4 Inhibitor I 0.091

TOM1 (UniProt O60784)
inactive: erlotinib -0.438 | [1] -0.036 | [2] -0.044 | [3] -0.018 | [4] -0.016 | [6] 0.013 | [7] -0.008 | [8] 0.111

TPT1 (UniProt P13693)
inactive: erlotinib 0.031 | [1] -0.021 | [2] 0.022 | [3] 0.001 | [4] -0.014 | [5] -0.001 | [6] -0.005 | [7] -0.003 | [8] 0.023 | IRAK-1-4 Inhibitor I 0.008

TNIK (UniProt C9J338)
inactive: erlotinib 0.067 | [1] -0.048 | [2] 0.067 | [3] -0.071 | [4] -0.064 | [6] -0.112 | [7] -0.101 | [8] 0.064

TMEM9 (UniProt Q9P0T7)
inactive: erlotinib -0.368 | [1] 0.021 | [2] -0.046 | [3] 0.052 | [4] 0.056 | [5] 0.045 | [6] -0.001 | IRAK-1-4 Inhibitor I 0.005

TMOD1 (UniProt P28289)
inactive: erlotinib 0.002 | [1] -0.091 | [2] 0.018 | [3] 0.018 | [4] -0.001 | [5] 0.003 | [6] 0.013 | [7] -0.005 | [8] -0.002 | IRAK-1-4 Inhibitor I 0.012

Reprinted from the results shown (two entries):
TPP2 (UniProt P29144)
inactive: erlotinib -0.001 | [1] -0.098 | [2] 0.01 | [3] 0.001 | [4] 0.006 | [5] 0 | [6] -0.02 | [7] -0.003 | [8] -0.005 | IRAK-1-4 Inhibitor I -0.002

TMUB1 (UniProt Q9BVT8)
inactive: erlotinib 0.027 | [1] 0.056 | [2] 0.004 | [3] -0.132 | [4] -0.197 | [5] -0.056 | [6] 0.022 | [7] -0.012 | [8] -0.034 | IRAK-1-4 Inhibitor I -0.096

Later entries.

TMEM248 (UniProt Q9NWD8)
inactive: erlotinib 0.013 | [1] 0.032 | [2] -0.082 | [3] 0.035 | [5] -0.148 | [6] -0.062 | [7] -0.009 | [8] 0.191 | IRAK-1-4 Inhibitor I 0.137
